Values from PubChem BioAssay AID504774 (Drosophila RNAi Screening Center, 2011).
Test: 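Fly genes whose loss alters survival after alkylation damage to DNA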 (primary screen). Cell system: Drosophila Kc167 cells. Reagents: long dsRNA against Drosophila genes, about 0.25 µg dsRNA per well. Timing: about 6 days: 3 days knock-down, then 3 days with or without MMS. Treatment: methyl methanesulphonate 0.004% (w/v) for 3 days after knock-down. Measured: 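Viability in wells given MMS, read as ATP luminescence, normalised by quantiles plate by plate and averaged across replicates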. Scale: mean viability with MMS and viability with MMS: higher = more surviving cells after MMS.
In all, the deposit lists about 23,000 reagents; shown is an unselected part of those that have a named target and a result. 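Values are quantile-normalised luminescence on an arbitrary scale; higher means more cells surviving MMS.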 The numbers tell different reagents against one gene apart. Names joined by + are all predicted targets of the reagent.

no.	target gene	dsRNA no.	mean viability with MMS	viability with MMS, replicate 1	viability with MMS, replicate 2
1	CG8093	1	3.64e6	4.16e6	4.18e6
2	CG1607	1	3.53e6	3.89e6	4.12e6
3	P58IPK	1	3.51e6	3.94e6	4.03e6
4	CG1703	1	3.63e6	3.95e6	4.43e6
5	CG44838	1	2.93e6	3.56e6	3.56e6
6	CG44838	2	3.51e6	4.03e6	3.92e6
7	CG33340	1	3.45e6	3.88e6	3.92e6
8	Pgant7	1	3.57e6	4.17e6	3.95e6
9	Kua	1	3.72e6	4.17e6	4.20e6
10	Achl	1	3.56e6	4.02e6	4.02e6
11	CG10098	1	3.53e6	3.96e6	4.05e6
12	CG10383	1	3.47e6	3.71e6	4.12e6
13	Mccc1	1	3.63e6	4.22e6	4.00e6
14	Shal	1	3.46e6	3.91e6	3.96e6
15	Shal	2	3.56e6	3.93e6	4.13e6
16	rl	1	3.55e6	4.05e6	3.99e6
17	rl	2	3.40e6	3.84e6	3.87e6
18	rl	3	3.46e6	3.96e6	3.93e6
19	eIF5	1	3.37e6	3.86e6	3.62e6
20	Hmgs	1	3.71e6	4.05e6	4.32e6
21	CG2656	1	3.67e6	4.18e6	4.17e6
22	CalpB	1	3.47e6	4.00e6	3.86e6
23	CG7806	1	3.75e6	4.12e6	4.45e6
24	CG17486	1	3.56e6	3.97e6	4.11e6
25	CG18540	1	3.44e6	3.78e6	3.98e6
26	CG11342	1	3.42e6	3.79e6	3.95e6
27	tth	1	3.41e6	3.63e6	4.20e6
28	CG12316	1	3.62e6	4.09e6	4.10e6
29	Lam	1	3.15e6	3.41e6	3.57e6

The list goes on (8 carried over from the part before).
no.	target gene	dsRNA no.	mean viability with MMS	viability with MMS, replicate 1	viability with MMS, replicate 2
22	CalpB	1	3.47e6	4.00e6	3.86e6
23	CG7806	1	3.75e6	4.12e6	4.45e6
24	CG17486	1	3.56e6	3.97e6	4.11e6
25	CG18540	1	3.44e6	3.78e6	3.98e6
26	CG11342	1	3.42e6	3.79e6	3.95e6
27	tth	1	3.41e6	3.63e6	4.20e6
28	CG12316	1	3.62e6	4.09e6	4.10e6
29	Lam	1	3.15e6	3.41e6	3.57e6
30	CG8026	1	3.53e6	4.05e6	3.94e6
31	CG8026	2	3.49e6	3.97e6	3.98e6
32	CG8526	1	3.52e6	3.97e6	4.01e6
33	mey	1	3.57e6	3.96e6	4.14e6
34	asrij	1	3.58e6	4.08e6	4.05e6
35	CCDC53	1	3.67e6	4.27e6	4.05e6
36	Rtc1	1	3.46e6	3.62e6	4.13e6
37	GckIII	1	3.39e6	3.92e6	3.73e6
38	CG11000	1	3.72e6	4.31e6	4.06e6
39	CG31347	1	3.35e6	3.88e6	3.82e6
40	Cap-D3	1	3.43e6	3.81e6	3.94e6
41	Cpsf5	1	3.31e6	3.76e6	3.81e6
42	Tnks	1	3.40e6	3.89e6	3.74e6
43	AANATL6	1	3.65e6	4.13e6	4.11e6
44	CG9010	1	3.52e6	4.07e6	3.90e6
45	CG13295	1	3.54e6	4.00e6	4.04e6
46	CG10834	1	3.55e6	3.99e6	4.05e6
47	Pde11	1	1.79e6	3.91e6	
48	Pde11	2	3.69e6	4.02e6	4.30e6
49	CG10588	1	3.49e6	4.01e6	3.87e6
50	CG13367	1	3.64e6	4.04e6	4.22e6
51	CG13367	2	3.63e6	4.07e6	4.16e6
52	CG2614	1	1.75e6	4.07e6	3.76e6
53	CNBP	1	3.58e6	3.89e6	4.24e6
54	CNBP	2	3.85e6	4.24e6	4.40e6
55	CNBP	3	3.43e6	3.85e6	3.98e6
56	sncRNA:430e + His2A:CG33859 + His2A:CG33817 + 37 more	1	3.29e6	3.77e6	3.77e6
57	LManIII	1	3.39e6	3.81e6	3.82e6
58	CG3819	1	3.32e6	3.75e6	3.73e6
59	GstD3	1	3.51e6	3.95e6	4.02e6
60	CG8149	1	3.63e6	4.09e6	4.08e6
61	mei-9	1	3.44e6	4.05e6	3.76e6
62	CG14893	1	3.50e6	3.88e6	4.05e6
63	CG16978	1	3.57e6	4.04e6	4.05e6
64	Acp62F	1	3.52e6	4.06e6	3.92e6
65	CG7044	1	3.39e6	3.95e6	3.78e6
66	Jhedup	1	3.63e6	4.05e6	4.15e6
67	CG18233	1	3.58e6	4.04e6	4.07e6
68	Bet3	1	3.71e6	4.28e6	4.06e6
